Data as given in patent US20190375810A1.
No constants are given. Whether binding was seen depends on the method and setting. Some binding calls cover weakened binding; strength is not graded here.

Columns and labels:
[1] = molecular target: T1, Soluble mouse EPOR chimera protein (R&D Systems) (mouse) (UniProt P14753); experiment: SPR, EPOR chimera on chip
T1 sequence (looked up): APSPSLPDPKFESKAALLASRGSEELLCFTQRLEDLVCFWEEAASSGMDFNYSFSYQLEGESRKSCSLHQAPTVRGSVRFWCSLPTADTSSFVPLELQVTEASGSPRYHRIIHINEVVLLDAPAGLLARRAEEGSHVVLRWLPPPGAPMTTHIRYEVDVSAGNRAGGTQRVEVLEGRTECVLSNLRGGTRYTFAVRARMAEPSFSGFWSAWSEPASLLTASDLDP

[2] = molecular target: T1, Soluble mouse EPOR chimera protein (R&D Systems) (mouse); experiment: SPR (Reichert SR7500C), mouse EPOR chimera amine-coupled to the chip, peptide injected at three concentrations

binding [1]: binds
binding [2]: binds
B1: ML4-1 (peptide)
peptide: KKAVSGLKTLTHILRALGAQKEAI
